Data reported in PubChem BioAssay AID504444 (National Center for Advancing Translational Sciences (NCATS), 2011).
The campaign covered roughly 360,000 compounds. About 7,500 (2.1%) were called active. The shares of active, inactive and inconclusive entries below differ from those in the screen. Calls follow the shape of the dose curve; as a rule, active = well fitted inhibition curve with a large enough effect; inconclusive = small, poorly fitted or top-dose-only effect, or effect the other way; inactive = flat fitted curve, though single readings scatter. Potencies of inconclusive entries are doubtful fits and often do not repeat.

Assay: Nrf2 qHTS screen for inhibitors; also: nearly all actives have a fitted effect of over 60% in size
Conditions: A549 ARE-Fluc reporter, luciferase luminescence, 18-24 h; series mostly up to 46 µM
Summary of the method: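 A549 ARE_Fluc cells, 5000/well, 5% FBS OPTI-MEM; compounds in dose-response, 18-24 h at 37 °C/5% CO2; CellTiter-Fluor viability read (Ex 405/Em 525), then BugLite luciferase luminescence = Nrf2 activity.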
Potency is read from the fitted curve at half-maximal effect.

Compound | Potency
CCN(CC)c1ccc(S(=O)(=O)N2CCOCC2)cc1NC(=O)CN1CCc2ccccc2C1 | inconclusive: 18.4 µM [falling, single point]
COc1ccc(CNC(=O)c2c(O)c3cccc4c3n(c2=O)CCC4)cc1OC | inconclusive: 2.59 µM [falling, partial curve, poor fit]
O=c1[nH]c(=O)n(Cc2ccccc2)c2nc(-c3ccco3)cc(C(F)(F)F)c12 | inconclusive: 6.51 µM [falling, partial curve, poor fit]
CCCNS(=O)(=O)c1ccc(OCC(=O)N2CCc3ccccc3C2)c(C)c1 | inconclusive: 23.1 µM [falling, partial curve, poor fit]
CCCNC(=O)Cn1nc(-c2ccc(C)c(C)c2)c2cnc3ccc(F)cc3c21 | inconclusive: 3.26 µM [activator, single point]
C/C(CC(=O)NC(C)(C)C)=N\NC(=O)c1ccccc1N | inconclusive: 3.26 µM [activator, full curve, poor fit]
Clc1ccc(CNc2cc(-c3ccccc3)nc3nncn23)cc1 | inactive
CCC1CCCCN1Cc1nc2c(c(=O)n(C)c(=O)n2C)n1Cc1c(F)cccc1Cl (configuration not stated) | inactive
CSc1ccc2nnc(-c3cccc(F)c3)n2n1 | inconclusive: 23.1 µM [falling, single point]
COc1cc(CNC(=O)OCC(C)C)cc(OC)c1OC | inconclusive: 0.82 µM [activator, full curve, poor fit]
O=C(Nc1cccc(C(F)(F)F)c1)Nc1nnc(N2CCCCC2)s1 | inconclusive: 23.1 µM [falling, single point]
CCOC(=O)c1cc(-c2ccccc2)nn1Cc1cc(CC)no1 | inactive
COc1ccc(C)cc1Nc1n[n+](-c2ccccc2)c(-c2cc([N+](=O)[O-])cc(OC)c2O)s1 | inactive
N#Cc1c(Nc2cccc(F)c2)sc(C(=O)c2ccc(Cl)cc2)c1N | inactive
COc1cccc(NC(=O)C(OC(=O)/C=C/c2ccc3c(c2)OCO3)c2ccccc2)c1 (configuration not stated) | inactive
N#CC1=C(N)Oc2ccc3ccccc3c2C1c1cccnc1 (configuration not stated) | inconclusive: 16.4 µM [falling, partial curve, poor fit]
COc1ccc(-c2nnc(SC)o2)c(OC)c1 | inconclusive: 20.6 µM [activator, partial curve]
O=C1CC2(CCN(C(=O)C(=O)c3c[nH]c4ccccc34)CC2)Oc2ccccc21 | inconclusive: 18.4 µM [activator, single point]
CC(C)(C)NC(=O)Cn1ccc(=N)c2ccccc21 | inconclusive: 2.31 µM [falling, partial curve, poor fit]
CC(C)(C)Cc1nnc(NC(=O)c2ccco2)s1 | inconclusive: 16.4 µM [activator, single point]
CSc1nc(N2CCOCC2)c2c(c1C#N)CC(C)(C)OC2 | inconclusive: 4.11 µM [falling, partial curve, poor fit]
COCCCNC(=O)COc1ccc(Br)cc1Cl | inactive
CCOc1ccc(CNC(=O)C2CCN(c3nn4c(=O)cc(C)nc4s3)CC2)cc1 | inconclusive: 29.1 µM [activator, single point]

Compound | Potency
O=C(O)CCc1ccc(S(=O)(=O)Nc2ccc(OCc3ccccc3)cc2)cc1 | inactive
COc1ccccc1N1C(=O)CC(N2CCN(c3ccc(Cl)cc3)CC2)C1=O (configuration not stated) | inconclusive: 23.1 µM [falling, single point]
c1c2c(cc3sc(N4CCCCC4)nc13)OCO2 | inconclusive: 0.517 µM [activator, full curve]
Cc1ccc2nc(NC(=O)CN3C(=O)NC4(CCCC4)C3=O)sc2c1 | inconclusive: 0.58 µM [activator, full curve, poor fit]
O=C1CC(NN2CCCCC2)C(=O)N1c1ccccc1 (configuration not stated) | inconclusive: 29.1 µM [activator, single point]
COCCNC(=O)Cn1nc(Cc2ccncc2)c2ccccc2c1=O | inactive
COc1ccc(N(C(=O)COc2ccccc2OC)S(=O)(=O)c2ccc(Cl)cc2)cc1 | inactive
O=C(/C=C\c1cn(-c2ccccc2)nc1-c1ccccc1)Nc1nccs1 | inconclusive: 13 µM [falling, partial curve, poor fit]
O=C(Nc1ccc2c(c1)ncn2C1CCCCC1)c1ccco1 | inconclusive: 2.59 µM [activator, partial curve]
Cc1cccnc1NC(=S)NC(=O)c1oc2ccccc2c1C | inconclusive: 11.6 µM [activator, partial curve]
CC(C)=CCc1c2c(c3occ(-c4ccc(O)c(O)c4)c(=O)c3c1O)C=CC(C)(C)O2 | inconclusive: 29.1 µM [falling, single point]
COc1ccc(OC)c(C(=O)CSc2nnc(-c3cccnc3)n2C)c1 | inconclusive: 4.11 µM [activator, partial curve, poor fit]
COc1nc(OC)nc(N2CCC(C(=O)NC3CCCCCC3)CC2)n1 | inconclusive: 2.91 µM [falling, partial curve, poor fit]
COc1cc(C2C3=C(CC(C)(C)CC3=O)NC3=C2C(=O)c2ccccc23)ccc1O (configuration not stated) | inconclusive: 25.9 µM [falling, partial curve, poor fit]
Cc1nonc1NCn1nnc2ccccc21 | inconclusive: 23.1 µM [activator, single point]
O=C(O)/C=C/C(=O)Nc1ccc(SC(F)(F)C(F)(F)C(F)(F)F)cc1 | inconclusive: 29.1 µM [activator, single point]
Cc1ccc(C(=O)N/N=C/C=C/c2ccccc2)cc1 | inconclusive: 0.82 µM [activator, partial curve, poor fit]
COc1ccc(CNC(=O)C2CCCN(S(=O)(=O)c3cccc4nsnc34)C2)cc1 (configuration not stated) | inconclusive: 29.1 µM [falling, single point]
COc1ccc(OC)c(Nc2nc(-c3cccs3)cs2)c1 | inconclusive: 23.1 µM [activator, single point]
Cc1cccc(NS(=O)(=O)c2ccc(NC(=O)N3CCCCC3)cc2)c1 | active: 18.4 µM
Cc1csc(CNc2ncnc3ccc(-c4c(C)noc4C)cc23)c1 | inconclusive: 10.3 µM [falling, partial curve, poor fit]
O=S(=O)(NCC(c1ccco1)N1CCN(c2ccccc2F)CC1)c1ccc(F)cc1 (configuration not stated) | inconclusive: 23.1 µM [falling, partial curve]
O=c1[nH]c(=O)n(-c2ccc(F)cc2)c2c1C(C(F)(F)F)(C(F)(F)F)N=C(c1ccc(F)cc1)N2 | active: 16.4 µM

Compound | Potency
COc1ccc(C(=O)CSc2ccc(-c3ccc(C)cc3)nn2)cc1 | inconclusive: 23.1 µM [activator, partial curve, poor fit]
Cc1ccc(-c2csc3ncnc(N4CCN(C(=O)c5ccco5)CC4)c23)cc1 | inactive
COc1ccccc1/C=N/NC(=O)c1ccc(Br)cc1 | inconclusive: 9.2 µM [activator, partial curve]
Nc1c(C(=O)Nc2ccc(OC(F)(F)F)cc2)sc2nc(-c3ccncc3)ccc12 | active: 6.51 µM
Cc1nn2c(=O)cc(COC(=O)Cc3ccccc3)nc2s1 | inconclusive: 29.1 µM [activator, single point]
COc1ccc(NC(=O)CCCOc2ccc(Cl)c(C)c2)cc1S(=O)(=O)N1CCOCC1 | active: 18.4 µM
CCOc1ccccc1-c1noc(CSc2nnc(-c3ccccc3)n2-c2ccc(F)cc2)n1 | inactive
O=[N+]([O-])c1ccc(CSc2ccc(S(=O)(=O)N3CCCCCC3)cn2)cc1 | inconclusive: 29.1 µM [falling, single point]
CCN1/C(=C/C(C)=C/c2sc3ccccc3[n+]2CC)Sc2ccccc21 | active: 8.2 µM
COc1ccccc1C1=Nn2c(nnc2-c2ccccc2C)SC1 | inactive
CCN(C(=O)CSc1ncnc2sc(C)c(C)c12)C1CCS(=O)(=O)C1 (configuration not stated) | active: 13 µM
Cc1ccc(-c2csc3ncnc(-n4cnc5ccccc54)c23)cc1 | inactive
Cc1ccc(CN2CCCN(CC(=O)Nc3ccc(C)cc3C)S2(=O)=O)cc1 | inactive
CSc1ccc(CCNC(=O)Cn2ccc3cc(S(=O)(=O)N4CCCCCC4)ccc32)cc1 | inconclusive: 29.1 µM [falling, single point]
O=C(Nc1nc2n(n1)C(c1ccc(F)cc1)C=C(c1ccccc1)N2)c1ccco1 (configuration not stated) | inconclusive: 23.1 µM [falling, single point]
c1ccc(CC2CCN(c3nc4ccccc4n4cnnc34)CC2)cc1 | inconclusive: 32.6 µM [falling, single point]
Cc1cc(NS(=O)(=O)c2ccc(NC(=O)CCSc3ccc(F)cc3)cc2)nc(C)n1 | inconclusive: 0.146 µM [activator, full curve, poor fit]
O=C(Nc1ccc2c(c1)nc1n2CCOC1)c1ccco1 | inconclusive: 2.91 µM [activator, full curve]
N#CC/C(N)=N/NC(=O)CCCNc1ncc(C(F)(F)F)cc1Cl | inconclusive: 25.9 µM [activator, single point]
O=C1NC(=S)N/C1=C/c1cc2c(cc1[N+](=O)[O-])OCO2 | inconclusive: 0.517 µM [activator, full curve, poor fit]
NC1CCN(c2nc3c(cc2F)c(=O)c(C(=O)O)cn3-c2ccc(F)cc2F)C1 (configuration not stated) | inconclusive: 18.4 µM [activator, partial curve, poor fit]

Sorted by count of non-hydrogen atoms (largest number first): 3 of the compounds above.
Compound | Potency
NC1CCN(c2nc3c(cc2F)c(=O)c(C(=O)O)cn3-c2ccc(F)cc2F)C1 (configuration not stated) | inconclusive: 18.4 µM [activator, partial curve, poor fit]
COc1ccccc1C1=Nn2c(nnc2-c2ccccc2C)SC1 | inactive
O=C(Nc1ccc2c(c1)nc1n2CCOC1)c1ccco1 | inconclusive: 2.91 µM [activator, full curve]
